Measured values: publication PMC6969036 (Nature Communications, 2020)
No constants are given. Whether binding was seen depends on the method and setting. In cells and extracts the contact can be indirect. Some binding calls cover weakened binding; strength is not graded here.

By UniProt entry, the sequences of proteins in these tests, tags left out. Residues count along the entry.
UniProt P61265, residues 162-265: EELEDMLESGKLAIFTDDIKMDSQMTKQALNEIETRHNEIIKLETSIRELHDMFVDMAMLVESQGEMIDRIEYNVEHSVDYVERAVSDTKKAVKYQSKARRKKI
UniProt P46096: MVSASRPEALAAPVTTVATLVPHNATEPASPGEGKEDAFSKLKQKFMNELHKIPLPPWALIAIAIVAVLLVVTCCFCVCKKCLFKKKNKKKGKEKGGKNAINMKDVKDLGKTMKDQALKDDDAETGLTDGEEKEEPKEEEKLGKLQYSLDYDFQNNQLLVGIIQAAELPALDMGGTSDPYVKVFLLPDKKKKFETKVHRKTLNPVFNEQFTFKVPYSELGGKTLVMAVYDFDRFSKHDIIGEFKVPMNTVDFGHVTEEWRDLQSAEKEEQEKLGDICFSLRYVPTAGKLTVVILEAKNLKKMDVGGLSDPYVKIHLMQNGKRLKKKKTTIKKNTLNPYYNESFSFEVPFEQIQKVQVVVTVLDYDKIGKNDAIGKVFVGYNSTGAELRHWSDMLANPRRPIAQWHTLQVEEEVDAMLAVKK

Biological target: GST-syntaxin1-SNARE (GST-fused SNARE domain of rat syntaxin1B) (rat) (UniProt P61265)
Experiment: pull-down; lysate (200 µg) of 293T cells expressing Syt I and STAND-A36 or STAND-M4 mixed with 2 µg purified GST-Syx1-SNARE or GST, anti-GST antibody and Dynabeads protein G, 500 µM CaCl2, 1 h 4 °C; blotted with anti-Syt I; only the target purified

In the case of “Syt I (synaptotagmin I) expressed in 293T cells (from UniProt P46096 1-421)”, the binding is reported as “binds”.
